No constants are given. Whether binding was seen depends on the method and setting. In cells and extracts the contact can be indirect. Some results given as binding are weak or reduced against the parent protein; the word gives no strength. Where a sequence is shown, tags or fusion partners need not be part of it.
T1: Flag-tagged chondroitin polymerizing factor (CHPF) expressed in glioma cells (UniProt Q8IZ52)
T1 sequence: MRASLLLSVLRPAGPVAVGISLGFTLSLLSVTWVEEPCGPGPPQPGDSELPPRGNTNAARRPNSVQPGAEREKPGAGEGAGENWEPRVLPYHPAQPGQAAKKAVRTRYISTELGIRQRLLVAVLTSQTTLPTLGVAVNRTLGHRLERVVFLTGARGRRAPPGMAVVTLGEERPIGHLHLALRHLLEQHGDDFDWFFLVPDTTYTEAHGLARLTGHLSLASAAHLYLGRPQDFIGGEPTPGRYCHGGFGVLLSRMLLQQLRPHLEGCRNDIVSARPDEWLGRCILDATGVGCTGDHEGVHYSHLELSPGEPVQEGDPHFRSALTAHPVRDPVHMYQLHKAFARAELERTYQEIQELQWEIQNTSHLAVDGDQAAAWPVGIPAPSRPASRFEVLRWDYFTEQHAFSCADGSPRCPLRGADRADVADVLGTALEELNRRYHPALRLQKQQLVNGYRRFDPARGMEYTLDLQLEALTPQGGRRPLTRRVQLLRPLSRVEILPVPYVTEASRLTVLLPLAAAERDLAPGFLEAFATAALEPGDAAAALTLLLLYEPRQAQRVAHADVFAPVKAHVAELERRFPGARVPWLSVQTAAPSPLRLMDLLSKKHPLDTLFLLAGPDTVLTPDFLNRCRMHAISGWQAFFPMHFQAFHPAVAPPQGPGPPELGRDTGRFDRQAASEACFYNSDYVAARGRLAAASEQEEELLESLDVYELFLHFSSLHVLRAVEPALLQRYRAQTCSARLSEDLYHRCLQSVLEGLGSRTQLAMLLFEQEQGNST

T2: MAD1L1-GST (UniProt Q9Y6D9)
T2 sequence: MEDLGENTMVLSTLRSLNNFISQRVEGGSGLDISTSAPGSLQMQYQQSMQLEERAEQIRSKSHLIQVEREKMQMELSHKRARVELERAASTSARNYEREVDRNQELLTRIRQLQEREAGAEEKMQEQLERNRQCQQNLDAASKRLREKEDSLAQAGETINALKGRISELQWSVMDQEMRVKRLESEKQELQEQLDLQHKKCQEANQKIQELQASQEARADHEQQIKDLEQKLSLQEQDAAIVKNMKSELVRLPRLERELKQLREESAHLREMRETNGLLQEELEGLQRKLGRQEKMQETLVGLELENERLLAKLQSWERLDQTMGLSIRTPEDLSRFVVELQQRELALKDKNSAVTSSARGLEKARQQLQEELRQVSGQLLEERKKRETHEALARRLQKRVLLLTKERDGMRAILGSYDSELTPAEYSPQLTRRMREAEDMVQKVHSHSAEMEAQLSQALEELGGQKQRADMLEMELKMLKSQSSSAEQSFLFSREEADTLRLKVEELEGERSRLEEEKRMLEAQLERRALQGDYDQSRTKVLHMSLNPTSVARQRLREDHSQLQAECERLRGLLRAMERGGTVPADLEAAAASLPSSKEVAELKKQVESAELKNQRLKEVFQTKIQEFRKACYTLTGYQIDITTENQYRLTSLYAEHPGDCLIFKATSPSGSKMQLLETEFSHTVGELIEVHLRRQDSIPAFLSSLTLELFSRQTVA

B1: Mitotic arrest deficient 1-like 1 (MAD1L1), endogenous in glioma cells (protein, UniProt Q9Y6D9 1-718)
chain: T2 sequence
B2: Flag-CHPF fusion protein from HEK293T cells (protein, UniProt Q8IZ52 1-775)
chain: T1 sequence

Experiments:
[1] = biological target: T1, Flag-tagged chondroitin polymerizing factor (CHPF) expressed in glioma cells; test: co-IP; lysates of glioma cells (U251, U87) transfected with flag-CHPF; anti-flag-CHPF or anti-MAD1L1 antibodies on protein A/G beads, 4 C; Western blot
MAD1L1-GST = biological target: T2, MAD1L1-GST; test: pull-down; MAD1L1-GST from E. coli immobilised on glutathione agarose as bait; Flag-CHPF extracted from HEK293T cells as prey; 4 C, 2 h; five PBS washes; Western blot; only the target purified

Row | Binder | binding [1] | binding (MAD1L1-GST)
1 | B1 | binds | –
2 | B2 | – | binds

Reference: PMC10637790
